{"source": "PubChem BioAssay AID1224830 – NIAID, 2016", "screen": "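Regulators of TLR4 signalling towards TNF-alpha in macrophage-like cells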 (primary screen)", "cells": "human THP-1 monocytic leukaemia cells, TNF dual-luciferase reporter clone, PMA-differentiated to macrophage-like cells", "reagents": "siRNA pool against human genes, 50 nM", "time to read-out": "LPS for 4 h, given about 3 days after siRNA transfection", "conditions": "bacterial LPS (TLR4 ligand), 10 ng/ml", "detection": "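TNF firefly reporter luminescence divided by renilla, normalised to the plate median, then turned into a robust z-score for each replicate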", "direction": "TNF reporter robust z-score: higher = stronger TNF reporter response to LPS", "call rule": "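Each well counts as active if its z-score is over 2.8 or under -1.5; controls are left without a call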", "note": "The whole screen tested about 18,000 reagents; this is a random part of them. About 2,900 of them (16%) were called active. 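Calls are made per well; low scores hint the gene aids the LPS response, high scores that it dampens it.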 Entries without a mark were called inactive. Repeated entries: four replicate wells of each siRNA pool. Reagent sequences are not shown."}
{"Target gene": "ZNF92 (zinc finger protein 92)", "TNF reporter robust z-score": 0.09}
{"Target gene": "ZNF92 (zinc finger protein 92)", "TNF reporter robust z-score": 2.38}
{"Target gene": "ZNF92 (zinc finger protein 92)", "TNF reporter robust z-score": -0.46}
{"Target gene": "ZNF92 (zinc finger protein 92)", "TNF reporter robust z-score": -0.29}
{"Target gene": "ANGPTL7 (angiopoietin like 7)", "TNF reporter robust z-score": -0.23}
{"Target gene": "ANGPTL7 (angiopoietin like 7)", "TNF reporter robust z-score": 1.79}
{"Target gene": "ANGPTL7 (angiopoietin like 7)", "TNF reporter robust z-score": 0.29}
{"Target gene": "ANGPTL7 (angiopoietin like 7)", "TNF reporter robust z-score": 0.79}
{"Target gene": "CLEC16A (C-type lectin domain containing 16A)", "TNF reporter robust z-score": -0.03}
{"Target gene": "CLEC16A (C-type lectin domain containing 16A)", "TNF reporter robust z-score": 0.31}
{"Target gene": "CLEC16A (C-type lectin domain containing 16A)", "TNF reporter robust z-score": 0.85}
{"Target gene": "CLEC16A (C-type lectin domain containing 16A)", "TNF reporter robust z-score": 1.05}
{"Target gene": "OMD (osteomodulin)", "TNF reporter robust z-score": -0.39}
{"Target gene": "OMD (osteomodulin)", "TNF reporter robust z-score": -0.17}
{"Target gene": "OMD (osteomodulin)", "TNF reporter robust z-score": -0.59}
{"Target gene": "OMD (osteomodulin)", "TNF reporter robust z-score": -0.83}
{"Target gene": "PDGFA (platelet derived growth factor subunit A)", "TNF reporter robust z-score": -0.65}
{"Target gene": "PDGFA (platelet derived growth factor subunit A)", "TNF reporter robust z-score": -0.88}
{"Target gene": "PDGFA (platelet derived growth factor subunit A)", "TNF reporter robust z-score": -0.05}
{"Target gene": "PDGFA (platelet derived growth factor subunit A)", "TNF reporter robust z-score": 0.21}

Entries listed so far whose gene name starts with O or o (4):
{"Target gene": "OMD (osteomodulin)", "TNF reporter robust z-score": -0.39}
{"Target gene": "OMD (osteomodulin)", "TNF reporter robust z-score": -0.17}
{"Target gene": "OMD (osteomodulin)", "TNF reporter robust z-score": -0.59}
{"Target gene": "OMD (osteomodulin)", "TNF reporter robust z-score": -0.83}
